This is one part of the list.
Legend:
Experiment in all cases: glycan array binding signal (z-score within array); higher = stronger binding
Conditions in all cases: glycan notation: IUPAC condensed, linker removed
[1] = target: Neu5Ac(a2-6)Gal(b1-4)GlcNAc(b1-3)Gal(b1-4)GlcNAc(b1-3)GalNAc
In short: (§1)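 The Consortium for Functional Glycomics database supplied 3228 glycan arrays, of which those lacking an available protein sequence were dropped. The binding signal, a within-array Z-score, was averaged across arrays of the same protein sequence and across linkers. Negative scores can be read as non-binding.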

[2] = target: Neu5Ac(a2-6)Gal(b1-4)GlcNAc(b1-3)Gal(b1-4)GlcNAc(b1-3)[Neu5Ac(a2-6)Gal(b1-4)GlcNAc(b1-3)Gal(b1-4)GlcNAc(b1-6)]GalNAc
In short: as §1

[3] = target: Neu5Ac(a2-6)Gal(b1-4)GlcNAc(b1-3)Gal(b1-4)GlcNAc(b1-6)[Gal(b1-3)]GalNAc
In short: as §1

[4] = target: Neu5Ac(a2-6)Gal(b1-4)GlcNAc(b1-3)Gal(b1-4)[Fuc(a1-3)]GlcNAc(b1-3)Gal(b1-4)[Fuc(a1-3)]GlcNAc
In short: as §1

[5] = target: Neu5Ac(a2-6)Gal(b1-4)GlcNAc(b1-3)GalNAc
In short: as §1

[6] = target: Neu5Ac(a2-6)Gal(b1-4)GlcNAc(b1-3)[Neu5Ac(a2-6)Gal(b1-4)GlcNAc(b1-6)]GalNAc
In short: as §1

[7] = target: Neu5Ac(a2-6)Gal(b1-4)GlcNAc(b1-6)GalNAc
In short: as §1

[8] = target: Neu5Ac(a2-6)Gal(b1-4)GlcNAc(b1-6)[Gal(b1-3)GlcNAc(b1-3)]Gal(b1-4)Glc
In short: as §1

[9] = target: Neu5Ac(a2-6)Gal(b1-4)GlcNAc(b1-6)[Gal(b1-3)]GalNAc
In short: as §1

[10] = target: Neu5Ac(a2-6)Gal(b1-4)GlcNAc6S
In short: as §1

Neu5Ac(a2-6)GalNAc = target: Neu5Ac(a2-6)GalNAc
In short: as §1

[11] = target: Neu5Ac(a2-6)GalNAc(b1-4)GlcNAc
In short: as §1

[12] = target: Neu5Ac(a2-6)GalNAc(b1-4)GlcNAc6S
In short: as §1

[13] = target: Neu5Ac(a2-6)GlcNAc(b1-4)GlcNAc
In short: as §1

[14] = target: Neu5Ac(a2-6)GlcNAc(b1-4)GlcNAc(b1-4)GlcNAc
In short: as §1

Neu5Ac(a2-8)Neu5Ac = target: Neu5Ac(a2-8)Neu5Ac
In short: as §1

[15] = target: Neu5Ac(a2-8)Neu5Ac(a2-3)Gal(b1-3)GalNAc(b1-4)[Neu5Ac(a2-3)]Gal(b1-4)Glc
In short: as §1

[16] = target: Neu5Ac(a2-8)Neu5Ac(a2-3)Gal(b1-3)GalNAc(b1-4)[Neu5Ac(a2-8)Neu5Ac(a2-3)]Gal(b1-4)Glc
In short: as §1

[17] = target: Neu5Ac(a2-8)Neu5Ac(a2-3)Gal(b1-4)Glc
In short: as §1

[18] = target: Neu5Ac(a2-8)Neu5Ac(a2-3)Gal(b1-4)GlcNAc
In short: as §1

[19] = target: Neu5Ac(a2-8)Neu5Ac(a2-3)[Gal(b1-3)GalNAc(b1-4)]Gal(b1-4)Glc
In short: as §1

[20] = target: Neu5Ac(a2-8)Neu5Ac(a2-3)[GalNAc(b1-4)]Gal(b1-4)Glc
In short: as §1

[21] = target: Neu5Ac(a2-8)Neu5Ac(a2-8)Neu5Ac
In short: as §1

[22] = target: Neu5Ac(a2-8)Neu5Ac(a2-8)Neu5Ac(a2-3)Gal(b1-4)Glc
In short: as §1

[23] = target: Neu5Ac(a2-8)Neu5Ac(a2-8)Neu5Ac(a2-3)[Gal(b1-3)GalNAc(b1-4)]Gal(b1-4)Glc
In short: as §1

[24] = target: Neu5Ac(a2-8)Neu5Ac(a2-8)Neu5Ac(a2-3)[GalNAc(b1-4)]Gal(b1-4)Glc
In short: as §1

[25] = target: Neu5Ac(a2-8)Neu5Ac(a2-8)Neu5Ac(a2-8)Neu5Ac(a2-3)[GalNAc(b1-4)]Gal(b1-4)Glc
In short: as §1

[26] = target: Neu5Ac(a2-8)Neu5Gc(a2-3)Gal(b1-4)GlcNAc
In short: as §1

[27] = target: Neu5Ac(b2-6)Gal(b1-4)GlcNAc
In short: as §1

Neu5Ac(b2-6)GalNAc = target: Neu5Ac(b2-6)GalNAc
In short: as §1

[28] = target: Neu5Ac9Ac(a2-3)Gal(b1-3)GlcNAc
In short: as §1

[29] = target: Neu5Ac9Ac(a2-3)Gal(b1-4)GlcNAc
In short: as §1

[30] = target: Neu5Ac9Ac(a2-6)Gal(b1-4)GlcNAc
In short: as §1

[31] = target: Neu5Gc(a2-3)Gal(b1-3)GlcNAc
In short: as §1

[32] = target: Neu5Gc(a2-3)Gal(b1-3)[Fuc(a1-4)]GlcNAc
In short: as §1

Neu5Gc(a2-3)Gal(b1-4)Glc = target: Neu5Gc(a2-3)Gal(b1-4)Glc
In short: as §1

[33] = target: Neu5Gc(a2-3)Gal(b1-4)GlcNAc
In short: as §1

[34] = target: Neu5Gc(a2-3)Gal(b1-4)GlcNAc(b1-3)Gal(b1-4)GlcNAc(b1-2)Man(a1-3)[Neu5Gc(a2-3)Gal(b1-4)GlcNAc(b1-3)Gal(b1-4)GlcNAc(b1-2)Man(a1-6)]Man(b1-4)GlcNAc(b1-4)GlcNAc
In short: as §1

[35] = target: Neu5Gc(a2-3)Gal(b1-4)[Fuc(a1-3)]GlcNAc
In short: as §1

[36] = target: Neu5Gc(a2-6)Gal(b1-4)GlcNAc
In short: as §1

Neu5Gc(a2-6)GalNAc = target: Neu5Gc(a2-6)GalNAc
In short: as §1

[37] = target: Neu5Gc(a2-8)Neu5Ac(a2-3)Gal(b1-4)GlcNAc
In short: as §1

[38] = target: Neu5Gc(a2-8)Neu5Gc(a2-3)Gal(b1-4)GlcNAc
In short: as §1

[39] = target: Neu5Gc(a2-8)Neu5Gc(a2-3)Gal(b1-4)GlcNAc(b1-3)Gal(b1-4)GlcNAc
In short: as §1

[40] = target: Neu5Gc(a2-8)Neu5Gc(a2-6)Gal(b1-4)GlcNAc
In short: as §1

[41] = target: Neu5Gc(b2-6)Gal(b1-4)GlcNAc
In short: as §1

B1: Clone646PsrP (Streptococcus pneumoniae) (protein)
chain: MDHHHHHHHHASENLYFQGAPAINASLNIAKSETKVYTGEGVDSVYRVPIYYKLKVTNDGSKLTFTYTVTYVNPKTNDLGNISSMRPGYSIYNSGTSTQTMLTLGSDLGKPSGVKNYITDKNGRQVLSYNTSTMTTQGSGYTWGNGAQMNGFFAKKGYGLTSSWTVPITGTDTSFTFTPYAARTDRIGINYFNGGGKVVESSTTSQSLSQSKSLSVSAS
[1]
  glycan array binding signal (z-score): -0.755
[2]
  glycan array binding signal (z-score): -0.729
[3]
  glycan array binding signal (z-score): -0.95
[4]
  glycan array binding signal (z-score): -0.791
[5]
  glycan array binding signal (z-score): -0.351
[6]
  glycan array binding signal (z-score): -0.551
[7]
  glycan array binding signal (z-score): 0.177
[8]
  glycan array binding signal (z-score): -0.835
[9]
  glycan array binding signal (z-score): -0.571
[10]
  glycan array binding signal (z-score): 0.19
Neu5Ac(a2-6)GalNAc
  glycan array binding signal (z-score): 0.052
[11]
  glycan array binding signal (z-score): -0.559
[12]
  glycan array binding signal (z-score): -0.113
[13]
  glycan array binding signal (z-score): -0.941
[14]
  glycan array binding signal (z-score): -0.662
Neu5Ac(a2-8)Neu5Ac
  glycan array binding signal (z-score): 0.174
[15]
  glycan array binding signal (z-score): -0.268
[16]
  glycan array binding signal (z-score): 2.15
[17]
  glycan array binding signal (z-score): -0.94
[18]
  glycan array binding signal (z-score): -0.777
[19]
  glycan array binding signal (z-score): -0.274
[20]
  glycan array binding signal (z-score): -0.817
[21]
  glycan array binding signal (z-score): -0.531
[22]
  glycan array binding signal (z-score): 0.236
[23]
  glycan array binding signal (z-score): 2.04
[24]
  glycan array binding signal (z-score): -0.849
[25]
  glycan array binding signal (z-score): -0.64
[26]
  glycan array binding signal (z-score): 0.146
[27]
  glycan array binding signal (z-score): -0.981
Neu5Ac(b2-6)GalNAc
  glycan array binding signal (z-score): -0.595
[28]
  glycan array binding signal (z-score): 0.071
[29]
  glycan array binding signal (z-score): -0.235
[30]
  glycan array binding signal (z-score): -0.651
[31]
  glycan array binding signal (z-score): -0.148
[32]
  glycan array binding signal (z-score): 0.496
Neu5Gc(a2-3)Gal(b1-4)Glc
  glycan array binding signal (z-score): -0.207
[33]
  glycan array binding signal (z-score): -0.146
[34]
  glycan array binding signal (z-score): 0.176
[35]
  glycan array binding signal (z-score): 0.164
[36]
  glycan array binding signal (z-score): 0.141
Neu5Gc(a2-6)GalNAc
  glycan array binding signal (z-score): 0.291
[37]
  glycan array binding signal (z-score): -1.02
[38]
  glycan array binding signal (z-score): -0.797
[39]
  glycan array binding signal (z-score): -0.912
[40]
  glycan array binding signal (z-score): -0.847
[41]
  glycan array binding signal (z-score): -0.219
